The labels stand for the following.
T1: FLAG-tagged DND1 wild-type (Dead End, full-length human protein 1-353) (human) (UniProt Q8IYX4)
T1 sequence: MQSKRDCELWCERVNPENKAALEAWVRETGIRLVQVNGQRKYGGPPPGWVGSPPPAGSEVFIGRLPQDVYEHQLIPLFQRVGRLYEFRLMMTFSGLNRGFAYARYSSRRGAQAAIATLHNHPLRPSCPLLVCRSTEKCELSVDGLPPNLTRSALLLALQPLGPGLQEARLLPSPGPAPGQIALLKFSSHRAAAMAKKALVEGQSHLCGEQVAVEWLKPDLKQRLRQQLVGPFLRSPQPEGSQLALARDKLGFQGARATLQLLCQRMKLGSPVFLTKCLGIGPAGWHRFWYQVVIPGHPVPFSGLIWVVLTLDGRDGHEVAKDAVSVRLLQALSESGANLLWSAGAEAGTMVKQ

B1: DHX30 (protein, UniProt Q7L2E3 1-1194)
chain: MFSLDSFRKDRAQHRQRQCKLPPPRLPPMCVNPTPGGTISRASRDLLKEFPQPKNLLNSVIGRALGISHAKDKLVYVHTNGPKKKKVTLHIKWPKSVEVEGYGSKKIDAERQAAAAACQLFKGWGLLGPRNELFDAAKYRVLADRFGSPADSWWRPEPTMPPTSWRQLNPESIRPGGPGGLSRSLGREEEEDEEEELEEGTIDVTDFLSMTQQDSHAPLRDSRGSSFEMTDDDSAIRALTQFPLPKNLLAKVIQIATSSSTAKNLMQFHTVGTKTKLSTLTLLWPCPMTFVAKGRRKAEAENKAAALACKKLKSLGLVDRNNEPLTHAMYNLASLRELGETQRRPCTIQVPEPILRKIETFLNHYPVESSWIAPELRLQSDDILPLGKDSGPLSDPITGKPYVPLLEAEEVRLSQSLLELWRRRGPVWQEAPQLPVDPHRDTILNAIEQHPVVVISGDTGCGKTTRIPQLLLERYVTEGRGARCNVIITQPRRISAVSVAQRVSHELGPSLRRNVGFQVRLESKPPSRGGALLFCTVGILLRKLQSNPSLEGVSHVIVDEVHERDVNTDFLLILLKGLQRLNPALRLVLMSATGDNERFSRYFGGCPVIKVPGFMYPVKEHYLEDILAKLGKHQYLHRHRHHESEDECALDLDLVTDLVLHIDARGEPGGILCFLPGWQEIKGVQQRLQEALGMHESKYLILPVHSNIPMMDQKAIFQQPPVGVRKIVLATNIAETSITINDIVHVVDSGLHKEERYDLKTKVSCLETVWVSRANVIQRRGRAGRCQSGFAYHLFPRSRLEKMVPFQVPEILRTPLENLVLQAKIHMPEKTAVEFLSKAVDSPNIKAVDEAVILLQEIGVLDQREYLTTLGQRLAHISTDPRLAKAIVLAAIFRCLHPLLVVVSCLTRDPFSSSLQNRAEVDKVKALLSHDSGSDHLAFVRAVAGWEEVLRWQDRSSRENYLEENLLYAPSLRFIHGLIKQFSENIYEAFLVGKPSDCTLASAQCNEYSEEEELVKGVLMAGLYPNLIQVRQGKVTRQGKFKPNSVTYRTKSGNILLHKSTINREATRLRSRWLTYFMAVKSNGSVFVRDSSQVHPLAVLLLTDGDVHIRDDGRRATISLSDSDLLRLEGDSRTVRLLKELRRALGRMVERSLRSELAALPPSVQEEHGQLLALLAELLRGPCGSFDVRKTADD
B2: HNRNPL (protein, UniProt P14866 1-589)
chain: MSRRLLPRAEKRRRRLEQRQQPDEQRRRSGAMVKMAAAGGGGGGGRYYGGGSEGGRAPKRLKTDNAGDQHGGGGGGGGGAGAAGGGGGGENYDDPHKTPASPVVHIRGLIDGVVEADLVEALQEFGPISYVVVMPKKRQALVEFEDVLGACNAVNYAADNQIYIAGHPAFVNYSTSQKISRPGDSDDSRSVNSVLLFTILNPIYSITTDVLYTICNPCGPVQRIVIFRKNGVQAMVEFDSVQSAQRAKASLNGADIYSGCCTLKIEYAKPTRLNVFKNDQDTWDYTNPNLSGQGDPGSNPNKRQRQPPLLGDHPAEYGGPHGGYHSHYHDEGYGPPPPHYEGRRMGPPVGGHRRGPSRYGPQYGHPPPPPPPPEYGPHADSPVLMVYGLDQSKMNCDRVFNVFCLYGNVEKVKFMKSKPGAAMVEMADGYAVDRAITHLNNNFMFGQKLNVCVSKQPAIMPGQSYGLEDGSCSYKDFSESRNNRFSTPEQAAKNRIQHPSNVLHFFNAPLEVTEENFFEICDELGVKRPSSVKVFSGKSERSSSGLLEWESKSDALETLGFLNHYQMKNPNGPYPYTLKLCFSTAQHAS
B3: TRAP1 (protein, UniProt Q12931 60-704)
chain: STQTAEDKEEPLHSIISSTESVQGSTSKHEFQAETKKLLDIVARSLYSEKEVFIRELISNASDALEKLRHKLVSDGQALPEMEIHLQTNAEKGTITIQDTGIGMTQEELVSNLGTIARSGSKAFLDALQNQAEASSKIIGQFGVGFYSAFMVADRVEVYSRSAAPGSLGYQWLSDGSGVFEIAEASGVRTGTKIIIHLKSDCKEFSSEARVRDVVTKYSNFVSFPLYLNGRRMNTLQAIWMMDPKDVREWQHEEFYRYVAQAHDKPRYTLHYKTDAPLNIRSIFYVPDMKPSMFDVSRELGSSVALYSRKVLIQTKATDILPKWLRFIRGVVDSEDIPLNLSRELLQESALIRKLRDVLQQRLIKFFIDQSKKDAEKYAKFFEDYGLFMREGIVTATEQEVKEDIAKLLRYESSALPSGQLTSLSEYASRMRAGTRNIYYLCAPNRHLAEHSPYYEAMKKKDTEVLFCFEQFDELTLLHLREFDKKKLISVETDIVVDHYKEEKFEDRSPAAECLSEKETEELMAWMRNVLGSRVTNVKVTLRLDTHPAMVTVLEMGAARHFLRMQQLAKTQEERAQLLQPTLEINPRHALIKKLNQLRASEPGLAQLLVDQIYENAMIAAGLVDDPRAMVGRLNELLVKALERH
B4: MEX3A (protein, UniProt A1L020 1-520)
chain: MPSLVVSGIMERNGGFGELGCFGGSAKDRGLLEDERALQLALDQLCLLGLGEPPAPTAGEDGGGGGGGAPAQPAAPPQPAPPPPPAAPPAAPTAAPAAQTPQPPTAPKGASDAKLCALYKEAELRLKGSSNTTECVPVPTSEHVAEIVGRQGCKIKALRAKTNTYIKTPVRGEEPVFMVTGRREDVATARREIISAAEHFSMIRASRNKSGAAFGVAPALPGQVTIRVRVPYRVVGLVVGPKGATIKRIQQQTNTYIITPSRDRDPVFEITGAPGNVERAREEIETHIAVRTGKILEYNNENDFLAGSPDAAIDSRYSDAWRVHQPGCKPLSTFRQNSLGCIGECGVDSGFEAPRLGEQGGDFGYGGYLFPGYGVGKQDVYYGVAETSPPLWAGQENATPTSVLFSSASSSSSSSAKARAGPPGAHRSPATSAGPELAGLPRRPPGEPLQGFSKLGGGGLRSPGGGRDCMVCFESEVTAALVPCGHNLFCMECAVRICERTDPECPVCHITATQAIRIFS
B5: MATR3 (protein, UniProt P43243 1-847)
chain: MSKSFQQSSLSRDSQGHGRDLSAAGIGLLAAATQSLSMPASLGRMNQGTARLASLMNLGMSSSLNQQGAHSALSSASTSSHNLQSIFNIGSRGPLPLSSQHRGDADQASNILASFGLSARDLDELSRYPEDKITPENLPQILLQLKRRRTEEGPTLSYGRDGRSATREPPYRVPRDDWEEKRHFRRDSFDDRGPSLNPVLDYDHGSRSQESGYYDRMDYEDDRLRDGERCRDDSFFGETSHNYHKFDSEYERMGRGPGPLQERSLFEKKRGAPPSSNIEDFHGLLPKGYPHLCSICDLPVHSNKEWSQHINGASHSRRCQLLLEIYPEWNPDNDTGHTMGDPFMLQQSTNPAPGILGPPPPSFHLGGPAVGPRGNLGAGNGNLQGPRHMQKGRVETSRVVHIMDFQRGKNLRYQLLQLVEPFGVISNHLILNKINEAFIEMATTEDAQAAVDYYTTTPALVFGKPVRVHLSQKYKRIKKPEGKPDQKFDQKQELGRVIHLSNLPHSGYSDSAVLKLAEPYGKIKNYILMRMKSQAFIEMETREDAMAMVDHCLKKALWFQGRCVKVDLSEKYKKLVLRIPNRGIDLLKKDKSRKRSYSPDGKESPSDKKSKTDGSQKTESSTEGKEQEEKSGEDGEKDTKDDQTEQEPNMLLESEDELLVDEEEAAALLESGSSVGDETDLANLGDVASDGKKEPSDKAVKKDGSASAAAKKKLKKVDKIEELDQENEAALENGIKNEENTEPGAESSENADDPNKDTSENADGQSDENKDDYTIPDEYRIGPYQPNVPVGIDYVIPKTGFYCKLCSLFYTNEEVAKNTHCSSLPHYQKLKKFLNKLAEERRQKKET
B6: RNA helicase MOV10 (protein, UniProt Q9HCE1 1-1003)
chain: MPSKFSCRQLREAGQCFESFLVVRGLDMETDRERLRTIYNRDFKISFGTPAPGFSSMLYGMKIANLAYVTKTRVRFFRLDRWADVRFPEKRRMKLGSDISKHHKSLLAKIFYDRAEYLHGKHGVDVEVQGPHEARDGQLLIRLDLNRKEVLTLRLRNGGTQSVTLTHLFPLCRTPQFAFYNEDQELPCPLGPGECYELHVHCKTSFVGYFPATVLWELLGPGESGSEGAGTFYIARFLAAVAHSPLAAQLKPMTPFKRTRITGNPVVTNRIEEGERPDRAKGYDLELSMALGTYYPPPRLRQLLPMLLQGTSIFTAPKEIAEIKAQLETALKWRNYEVKLRLLLHLEELQMEHDIRHYDLESVPMTWDPVDQNPRLLTLEVPGVTESRPSVLRGDHLFALLSSETHQEDPITYKGFVHKVELDRVKLSFSMSLLSRFVDGLTFKVNFTFNRQPLRVQHRALELTGRWLLWPMLFPVAPRDVPLLPSDVKLKLYDRSLESNPEQLQAMRHIVTGTTRPAPYIIFGPPGTGKTVTLVEAIKQVVKHLPKAHILACAPSNSGADLLCQRLRVHLPSSIYRLLAPSRDIRMVPEDIKPCCNWDAKKGEYVFPAKKKLQEYRVLITTLITAGRLVSAQFPIDHFTHIFIDEAGHCMEPESLVAIAGLMEVKETGDPGGQLVLAGDPRQLGPVLRSPLTQKHGLGYSLLERLLTYNSLYKKGPDGYDPQFITKLLRNYRSHPTILDIPNQLYYEGELQACADVVDRERFCRWAGLPRQGFPIIFHGVMGKDEREGNSPSFFNPEEAATVTSYLKLLLAPSSKKGKARLSPRSVGVISPYRKQVEKIRYCITKLDRELRGLDDIKDLKVGSVEEFQGQERSVILISTVRSSQSFVQLDLDFNLGFLKNPKRFNVAVTRAKALLIIVGNPLLLGHDPDWKVFLEFCKENGGYTGCPFPAKLDLQQGQNLLQGLSKLSPSTSGPHSHDYLPQEREGEGGLSLQVEPEWRNEL

No constants are given. Whether binding was seen depends on the method and setting. Binding seen in cells or lysates may run through a third protein. A yes stands for co-enrichment or nearness to the bait. Other partners may have been found. Sequences can lack the tags named with a protein.

The target of the assay is T1, FLAG-tagged DND1 wild-type (Dead End, full-length human protein 1-353) (human). Briefly: affinity purification with mass spectrometry; lysate of HEK293T cells transfected with FLAG-tagged DND1 WT, R98A or 1-235 on FLAG-M2 magnetic beads overnight at 4 °C; IP-Lysis buffer 50 mM Tris-HCl pH 7.4, 150 mM NaCl, 1 mM EDTA, 0.5% Triton X-100; trypsin digestion on the beads, shotgun LC-MS/MS; three biological replicates; no RNase treatment described.
Consider B1, for which the binding entry is given as “binds”.
Under B2 stands “binds”; under B3, “binds”.
With B4 the entry was “binds”.
For the molecule B5, the binding result is “binds”.
With B6 the entry was “binds”.

The values above are taken from publication PMC9537309.
